What is called MIC is the lowest concentration found to suppress growth.

Among the data in publication PMC6790694, “Selective Modification of Ribosomally Synthesized and Post‐Translationally Modified Peptides (RiPPs) through Diels–Alder Cycloadditions on Dehydroalanine Residues” (Chemistry (Weinheim an Der Bergstrasse, Germany), 2019) are MIC values, retold here.

For the experiment, the system named is S. aureus (ATCC29213). The experiment can be described thus: MIC assay, broth microdilution, S. aureus. Particulars: Staphylococcus aureus. It is filed as cell-based. The procedure: Moreover, variations in activity towards both strains and between the different site‐ and endo/exo isomers remained limited to a factor of 4. The activity of 3 also very closely resembles that of thiostrepton, showing that even removing part of the tail region has little effect on its activity.
Biological Activity Assays
Preparation of antimicrobial agents
Thiostrepton and its variants were dissolved and diluted in DMSO to a concentration of 640 µg/ml, and stored at -20 °C. Before use, they were diluted 20 fold in Mueller Hinton Broth 2 (CAMHB; cation-adjusted, Sigma-Aldrich).
Dilution of the thiostrepton compounds in CAMHB was done in 50 % volume steps to prevent precipitation.
Vancomycin for the quality controls was dissolved in MQ to a concentration of 256 mg/ml and stored at -20 °C.
It was diluted in CAMHB to a final concentration of 256 µg/ml before use.
Strains and growth conditions
The MIC values of thiostrepton and its variants were determined for Staphylococcus aureus LMG 10147 […]
from glycerol stocks on LB (Formedium™) and GM17 (Difco™) plates respectively. […]
Well 11, lacking the test compound, functions as a growth control and well 12 as a sterility control. […] To ensure MIC data reliability, MIC values for vancomycin were determined for every series of tests performed, as described […]
(In general: Broth dilution looks for growth in wells or tubes with falling amounts of substance.)

In brackets after ≈: the same amount, converted by molar mass. Read-outs that look alike come from different tables or passages of the source.

With `CN[C@H](CC(C)C)C(=O)N[C@H]1C(=O)N[C@@H](CC(N)=O)C(=O)N[C@H]2C(=O)N[C@H]3C(=O)N[C@H](C(=O)N[C@H](C(=O)O)c4cc(O)cc(O)c4-c4cc3ccc4O)[C@H](O)c3ccc(c(Cl)c3)Oc3cc2cc(c3O[C@@H]2O[C@H](CO)[C@@H](O)[C@H](O)[C@H]2O[C@H]2C[C@](C)(N)[C@H](O)[C@H](C)O2)Oc2ccc(cc2Cl)[C@H]1O` [Vancomycin], the MIC is, setting by setting: (ATCC 29213 / LMG10147, 20 h, read-out: MIC against S. aureus) 1 µg/mL (≈ 0.69 µM); (ATCC 29213 / LMG10147 / MSSA, 20 h, read-out: MIC against S. aureus (MSSA)) 1 µg/mL (≈ 0.69 µM).
